Laboratory results: PubChem BioAssay AID1347075 (National Center for Advancing Translational Sciences (NCATS), 2019)
The campaign covered roughly 400,000 compounds. About 5,500 (1.4%) were called active. This list was built around the results that the source calls inconclusive (neither active nor inactive); the mix of calls is not that of the screen. Calls follow the shape of the dose curve; as a rule, active = well fitted cell-killing curve with a large enough effect; inconclusive = small, poorly fitted or top-dose-only effect, or effect the other way; inactive = flat fitted curve, though single readings scatter. A potency beside an inconclusive call is a rough fit, not a confirmed value.
% is scaled to controls: 0 for no effect and ±100 for the full control effect; potency is read from the fitted curve at half-maximal effect.

Experiment: qHTS assay for MDR1-selective chemotherapeutics: Primary screen using the parental adenocarcinoma cell KB-3-1; also: nearly all actives have a fitted effect of over 60% in size
Conditions: KB-3-1 viability, CellTiter-Glo ATP luminescence, 72 h; activity change, negative = cytotoxic: at 46.1 µM (top of the series)
How it was run: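 Cytotoxicity measured as CellTiter-Glo luminescence after 72 h at 37 C. Compound titrations were pinned onto drug-naive KB-3-1 parental adenocarcinoma cells grown in DMEM with 10% FBS, and normalized data fitted to concentration-response curves.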
For `Cc1ccc(-c2nnc3c4ccccc4c(C)nn23)cc1S(=O)(=O)N1CCN(CCO)CC1`, the Potency was inconclusive: 23.1 µM [cytotoxic, single point]. For `Fc1ccc(C2CC(c3ccccc3)Nc3ncnn32)cc1` (configuration not stated), the Potency was inconclusive: 20.6 µM [cytotoxic, partial curve]. For `O=C(CN1CCCc2ccccc21)N/N=C/c1ccccc1O`, the Potency was inconclusive: 32.6 µM [cytotoxic, single point]. In the case of `N#Cc1ccc(-c2nc3ccc(Br)cn3c2Cc2ccccc2C(F)(F)F)cc1`, the Potency is reported as inconclusive: 29.1 µM [cytotoxic, single point]. For `CCOC(=O)c1cccc(NC(=O)CN(c2ccc(C)cc2)S(=O)(=O)c2c(C)noc2C)c1`, the Potency was inconclusive: 29.1 µM [cytotoxic, single point]. In the case of `CCC1(C)Cc2c(sc3c2c2ncnn2c2nnc(SCC(=O)NCc4ccco4)n32)CO1` (configuration not stated), the Potency is reported as inconclusive: 20.6 µM [cytotoxic, single point]. In the case of `CCCCCCC(=O)OCC(=O)c1ccc2c(c1)NC(=O)CO2`, the activity change, negative = cytotoxic is reported as inconclusive: -1.99%. With `CS(=O)(=O)N(CC(=O)NCCC1=CCCCC1)C1CCCCC1` the Potency was inconclusive: 29.1 µM [cytotoxic, single point]. With `FC(F)Oc1ccc(-n2cc(-c3ccccc3)[n+]3c2CCCCC3)cc1` the Potency was active: 23.1 µM. In the case of `CN1OC[C@@H]2CN3C(=O)N(c4cccc5ccccc45)c4ccccc4[C@@H]3C[C@@H]21`, the “activity change, negative = cytotoxic” value is reported as inactive: 0.0564%. With `Cc1ccnc(SCC(=O)Nc2sc3c(c2C#N)CCC(C(C)(C)C)C3)n1` (configuration not stated) the Potency was inconclusive: 29.1 µM [cytotoxic, single point]. With `COc1cc2c(cc1OC)C(C)N(S(=O)(=O)c1cn(C)cn1)CC2` (configuration not stated) the “activity change, negative = cytotoxic” value was inactive: 0%. With `CCN(CC(=O)Nc1ccc2c(c1)OCCO2)C(=O)/C=C/c1ccc(OC)c(OC)c1` the Potency was inconclusive: 29.1 µM [rising, single point]. For `CSc1nc(SCCO)c2sc3nc(-c4ccco4)c4c(c3c2n1)CC(C)(C)OC4`, the Potency was inconclusive: 20.6 µM [cytotoxic, single point]. With `COc1cc(/C=C/C(=O)NCCn2c(C)cc3ccccc32)cc(OC)c1OC` the Potency was inconclusive: 8.2 µM [cytotoxic, partial curve]. In the case of `O=C(CSCc1ccccc1Br)NNC(=S)NCc1ccco1`, the Potency is reported as inconclusive: 29.1 µM [cytotoxic, single point]. With `CCOC(=O)c1c(CN2CCOCC2)n(-c2ccccc2)c2cc(Br)c(OC)cc12` the Potency was inconclusive: 32.6 µM [cytotoxic, single point]. With `COc1ccc(NS(=O)(=O)c2c(C)cc(C)cc2C)cc1` the Potency was inconclusive: 29.1 µM [cytotoxic, single point]. In the case of `O=C(CNC(=O)c1ccc(Cl)cc1)NNc1c(F)c(F)cc(F)c1F`, the “activity change, negative = cytotoxic” value is reported as inactive: -5.24%. In the case of `CC(C)c1ccccc1NC(=O)COC(=O)c1cc([N+](=O)[O-])ccc1N1CCOCC1`, the “activity change, negative = cytotoxic” value is reported as inactive: -5.55%. With `COc1ccc(C)cc1N1C(=N)/C(=C2/Nc3ccccc3S2)C(c2ccccc2)C1=O` (configuration not stated) the Potency was inconclusive: 29.1 µM [cytotoxic, single point]. In the case of `NC(=S)N/N=C/c1c(O)c(Br)cc2oc3c(c12)CCCC3`, the Potency is reported as active: 20.6 µM. With `Cc1cccc(C(C)C)c1NC(=O)c1ccc2c(c1)CCN2S(C)(=O)=O` the “activity change, negative = cytotoxic” value was inactive: 3.49%. For `N#C/C(=C\c1c(Cl)cccc1Cl)c1nc2ccccc2[nH]1`, the “activity change, negative = cytotoxic” value was inactive: -1.56%. In the case of `COc1ccc(C(=O)n2nc(-c3ccc(C)cc3)nc2N)cc1OC`, the Potency is reported as inconclusive: 25.9 µM [cytotoxic, single point]. With `COc1ccc(-c2c[n+](CC(=O)c3cccs3)c3n2CCC3)cc1` the Potency was inconclusive: 32.6 µM [cytotoxic, single point]. For `CCOC(=O)c1cnc(SCc2nc(N)nc(Nc3ccccc3)n2)nc1N`, the Potency was inconclusive: 32.6 µM [cytotoxic, single point]. In the case of `COC(=O)c1ccc(-c2ccc([C@H]3[C@H]4C=CC[C@@H](C)[C@@H]4C(=O)N3Cc3ccccc3)c(F)c2)cc1`, the “activity change, negative = cytotoxic” value is reported as inactive: -16.1%. In the case of `CCOC(=O)c1cc2c(=O)n3ccccc3nc2n(CC2CCCO2)c1=NC(=O)/C=C/c1ccccc1` (configuration not stated), the Potency is reported as inconclusive: 29.1 µM [cytotoxic, single point]. In the case of `CCC(=O)Nc1ccc(S(=O)(=O)NC[C@H]2O[C@@H](n3cc(C)c(=O)[nH]c3=O)C[C@@H]2O)cc1`, the “activity change, negative = cytotoxic” value is reported as inactive: 9.63%. With `CCn1c(SCC(=O)N(C(C)C)C(C)C)nnc1-c1cc2ccccc2cc1O` the Potency was inconclusive: 23.1 µM [cytotoxic, single point]. With `COc1cc2ccccc2cc1C(=O)N(CCN(C)C)c1nc2c(OC)ccc(OC)c2s1` the Potency was inconclusive: 29.1 µM [cytotoxic, single point]. For `CCOC(=O)C1=C(C)NC(=O)NC1c1ccc(OCC(=O)OC)c(OC)c1` (configuration not stated), the activity change, negative = cytotoxic was inconclusive: -31.2% [cytotoxic]. With `COc1ccccc1CNC(=O)[C@H](CCSC)NC(=O)[C@@H]1Cc2ccccc2CN1` the Potency was inconclusive: 25.9 µM [cytotoxic, single point]. In the case of `OC(c1ccc(F)c(F)c1)c1nc(-c2cnc3ccccc3c2)cs1` (configuration not stated), the Potency is reported as inconclusive: 29.1 µM [cytotoxic, single point]. In the case of `C(=N\N(c1ccccc1)c1ccccc1)/c1ccccn1`, the “activity change, negative = cytotoxic” value is reported as inactive: -5.36%. For `COc1ccc(C2SCC(=O)N2c2nnc(C34CC5CC(CC(C5)C3)C4)s2)cc1` (configuration not stated), the Potency was inconclusive: 18.4 µM [rising, single point]. In the case of `Cc1cc(NC(=O)CN2C(=O)NC3(CCCCC3)C2=O)ccc1N1CCCC1`, the Potency is reported as inconclusive: 29.1 µM [rising, single point]. With `O=C(NCc1ccccn1)C1CCN(S(=O)(=O)N2CCC3(CC2)OCCO3)CC1` the “activity change, negative = cytotoxic” value was inactive: 0%. In the case of `Cc1ccc(-c2cc3c(N=O)c4ccccc4c-3n[nH]2)cc1`, the “activity change, negative = cytotoxic” value is reported as inactive: -7.33%. In the case of `CO/N=C(\Cn1ncc(N2CCCC2)c(Cl)c1=O)c1ccc(Cl)cc1`, the Potency is reported as inconclusive: 20.6 µM [cytotoxic, partial curve, poor fit]. With `C[C@H]1CN([C@@H](C)CO)C(=O)c2cccc(NC(=O)Nc3ccc(C(F)(F)F)cc3)c2O[C@H]1CN(C)C` the Potency was inconclusive: 16.4 µM [cytotoxic, partial curve, poor fit].
